From patent US20190284243A1, “BINDING PEPTIDES” (University of Copenhagen, priority 2016, published 2019)
Results are given in words; binding and its absence hold for the method and conditions named. For some assays here: Binding can be weak; no strength is given.

Columns and labels:
[1] = target: Interleukin 1; test: Table 1 grade; context bead
[2] = target: Interleukin 1; test: sandwich assay on PEGA beads, 50 nM IL1, 20 min
[3] = target: Interleukin 1; test: fluorescence microscopy of two bead types incubated with IL1
[4] = target: Interleukin 1; test: fluorescence microscopy of two bead types incubated with 100 nM ROX-IL1
[5] = target: Interleukin 1; test: sandwich assay on PEGA beads, 50 nM IL1, 100 nM peptide B, ROX fluorescence
[6] = target: Interleukin 1; test: fluorescence microscopy of two bead types incubated with ROX-IL1

| binding [1] | binding [2] | binding [3] | binding [4] | binding [5] | binding [6] | Binder |
| --- | --- | --- | --- | --- | --- | --- |
| binds | binds | binds | binds | binds | – | ETDTYTETYPGYTSTWTITD (designed binder) [Ligand 1: …-Bead (SEQ ID NO: 5)] |
| – | – | – | – | – | no binding (tested: 100 nM) | TETKTVTITRPKMTWTFTHTVTG (designed binder) [β-body SEQ ID NO: 1 (…)] |
| – | binds | – | – | binds | – | TKTDRVTEPGRTMTFTGT (designed binder, N-terminal RhodamineX) [Ligand 2: RhodamineX-…-OH (SEQ ID NO: 7)] |
